# Source: ChEMBL document CHEMBL4316593 (Eur J Med Chem, 2019)
# This continues a long series; more values of the same kind are listed elsewhere.
# Key:
# Type in all cases: cell-based
# Settings in all cases: U-87MG ATCC
# [1] = Inhibition of RTK/PI3K/AKT/mTOR signaling in human U87 cells assessed as up regulation of pleckstrin homology domain containing A6 gene expression at cytotoxic IC50 measured after 48 hrs relative to control
# [2] = Inhibition of RTK/PI3K/AKT/mTOR signaling in human U87 cells assessed as up regulation of chromobox 5 gene expression at cytotoxic IC50 measured after 48 hrs relative to control
# [3] = Inhibition of RTK/PI3K/AKT/mTOR signaling in human U87 cells assessed as down regulation of ARL6IP1 gene expression at cytotoxic IC50 measured after 48 hrs relative to control
# [4] = Inhibition of RTK/PI3K/AKT/mTOR signaling in human U87 cells assessed as down regulation of ZFYVE16 gene expression at cytotoxic IC50 measured after 48 hrs relative to control
# [5] = Inhibition of RTK/PI3K/AKT/mTOR signaling in human U87 cells assessed as up regulation of membrane associated ring-CH-type finger 9 gene expression at cytotoxic IC50 measured after 48 hrs relative to control
# [6] = Inhibition of RTK/PI3K/AKT/mTOR signaling in human U87 cells assessed as up regulation of chromosome 11 open reading frame 1 gene expression at cytotoxic IC50 measured after 48 hrs relative to control
# [7] = Inhibition of RTK/PI3K/AKT/mTOR signaling in human U87 cells assessed as down regulation of ELMSAN1 gene expression at cytotoxic IC50 measured after 48 hrs relative to control
# [8] = Inhibition of RTK/PI3K/AKT/mTOR signaling in human U87 cells assessed as down regulation of PDPK1 gene expression at cytotoxic IC50 measured after 48 hrs relative to control
# [9] = Inhibition of RTK/PI3K/AKT/mTOR signaling in human U87 cells assessed as up regulation of extended synaptotagmin 2 gene expression at cytotoxic IC50 measured after 48 hrs relative to control
# [10] = Inhibition of RTK/PI3K/AKT/mTOR signaling in human U87 cells assessed as up regulation of ATP binding cassette subfamily A member 1 gene expression at cytotoxic IC50 measured after 48 hrs relative to control
# [11] = Inhibition of RTK/PI3K/AKT/mTOR signaling in human U87 cells assessed as up regulation of calnexin gene expression at cytotoxic IC50 measured after 48 hrs relative to control
# [12] = Inhibition of RTK/PI3K/AKT/mTOR signaling in human U87 cells assessed as down regulation of REPS1 gene expression at cytotoxic IC50 measured after 48 hrs relative to control
# [13] = Inhibition of RTK/PI3K/AKT/mTOR signaling in human U87 cells assessed as up regulation of DRD1 gene expression at cytotoxic IC50 measured after 48 hrs relative to control
# [14] = Inhibition of RTK/PI3K/AKT/mTOR signaling in human U87 cells assessed as up regulation of solute carrier family 16 member 1 gene expression at cytotoxic IC50 measured after 48 hrs relative to control
# [15] = Inhibition of RTK/PI3K/AKT/mTOR signaling in human U87 cells assessed as down regulation of CDC14A gene expression at cytotoxic IC50 measured after 48 hrs relative to control
# [16] = Inhibition of RTK/PI3K/AKT/mTOR signaling in human U87 cells assessed as down regulation of CATSPERG gene expression at cytotoxic IC50 measured after 48 hrs relative to control
# [17] = Inhibition of RTK/PI3K/AKT/mTOR signaling in human U87 cells assessed as up regulation of AMZ2 gene expression at cytotoxic IC50 measured after 48 hrs relative to control
# [18] = Inhibition of RTK/PI3K/AKT/mTOR signaling in human U87 cells assessed as down regulation of ATG3 gene expression at cytotoxic IC50 measured after 48 hrs relative to control
# [19] = Inhibition of RTK/PI3K/AKT/mTOR signaling in human U87 cells assessed as down regulation of ACTR1A gene expression at cytotoxic IC50 measured after 48 hrs relative to control
# [20] = Inhibition of RTK/PI3K/AKT/mTOR signaling in human U87 cells assessed as down regulation of HSPA8 gene expression at cytotoxic IC50 measured after 48 hrs relative to control
# [21] = Inhibition of RTK/PI3K/AKT/mTOR signaling in human U87 cells assessed as down regulation of LSG1 gene expression at cytotoxic IC50 measured after 48 hrs relative to control
# [22] = Inhibition of RTK/PI3K/AKT/mTOR signaling in human U87 cells assessed as down regulation of EXOSC6 gene expression at cytotoxic IC50 measured after 48 hrs relative to control
# [23] = Inhibition of RTK/PI3K/AKT/mTOR signaling in human U87 cells assessed as up regulation of keratin 8 gene expression at cytotoxic IC50 measured after 48 hrs relative to control
# [24] = Inhibition of RTK/PI3K/AKT/mTOR signaling in human U87 cells assessed as up regulation of ALG12, alpha-1,6-mannosyltransferase gene expression at cytotoxic IC50 measured after 48 hrs relative to control
# [25] = Inhibition of RTK/PI3K/AKT/mTOR signaling in human U87 cells assessed as down regulation of MED12L gene expression at cytotoxic IC50 measured after 48 hrs relative to control
# [26] = Inhibition of RTK/PI3K/AKT/mTOR signaling in human U87 cells assessed as up regulation of Fanconi anemia complementation group C gene expression at cytotoxic IC50 measured after 48 hrs relative to control
# [27] = Inhibition of RTK/PI3K/AKT/mTOR signaling in human U87 cells assessed as up regulation of PTPRF interacting protein alpha 3 gene expression at cytotoxic IC50 measured after 48 hrs relative to control
# [28] = Inhibition of RTK/PI3K/AKT/mTOR signaling in human U87 cells assessed as down regulation of HES1 gene expression at cytotoxic IC50 measured after 48 hrs relative to control
# [29] = Inhibition of RTK/PI3K/AKT/mTOR signaling in human U87 cells assessed as up regulation of LGALS3 gene expression at cytotoxic IC50 measured after 48 hrs relative to control
# [30] = Inhibition of RTK/PI3K/AKT/mTOR signaling in human U87 cells assessed as down regulation of MDC1 gene expression at cytotoxic IC50 measured after 48 hrs relative to control
# [31] = Inhibition of RTK/PI3K/AKT/mTOR signaling in human U87 cells assessed as down regulation of SERTAD1 gene expression at cytotoxic IC50 measured after 48 hrs relative to control
# [32] = Inhibition of RTK/PI3K/AKT/mTOR signaling in human U87 cells assessed as up regulation of tigger transposable element derived 5 gene expression at cytotoxic IC50 measured after 48 hrs relative to control
smiles,measurement,setting,value
CC(=O)C(=NNc1ccccc1C#N)C(C)=O,log2FC,[1],1.32
same,log2FC,[2],0.82
same,log2FC,[3],-0.486
same,log2FC,[4],-0.898
same,log2FC,[5],1.34
same,log2FC,[6],1.07
same,log2FC,[7],-1.26
same,log2FC,[8],-0.919
same,log2FC,[9],0.732
same,log2FC,[10],1.4
same,log2FC,[11],0.838
same,log2FC,[12],-0.538
same,log2FC,[13],4.16
same,log2FC,[14],1.33
same,log2FC,[15],-1.43
same,log2FC,[16],-1.65
same,log2FC,[17],0.599
same,log2FC,[18],-0.658
same,log2FC,[19],-0.534
same,log2FC,[20],-1.57
same,log2FC,[21],-0.532
same,log2FC,[22],-0.96
same,log2FC,[23],0.958
same,log2FC,[24],1.14
same,log2FC,[25],-1.93
same,log2FC,[26],1.18
same,log2FC,[27],1.2
same,log2FC,[28],-1.21
same,log2FC,[29],0.442
same,log2FC,[30],-0.468
same,log2FC,[31],-0.988
same,log2FC,[32],1.39
